From PMC6195382
Results are given in words; binding and its absence hold for the method and conditions named. Some entries that bind do so weakly or less than the wild type. For part of these data: Where a sequence is shown, tags or fusion partners need not be part of it.

Key:
mCEACAM1-His (mouse) [1] = target: T1, mCEACAM1-His (mouse) (UniProt P31809); assay: ELISA; protein ELISA: plates coated with mCEACAM-His 1 ug/ml in PBS at 4 C overnight, blocked; serially diluted mCEACAM1-hFc added 30 min at room temperature; detected with HRP goat anti-human IgG; both purified
T1 sequence: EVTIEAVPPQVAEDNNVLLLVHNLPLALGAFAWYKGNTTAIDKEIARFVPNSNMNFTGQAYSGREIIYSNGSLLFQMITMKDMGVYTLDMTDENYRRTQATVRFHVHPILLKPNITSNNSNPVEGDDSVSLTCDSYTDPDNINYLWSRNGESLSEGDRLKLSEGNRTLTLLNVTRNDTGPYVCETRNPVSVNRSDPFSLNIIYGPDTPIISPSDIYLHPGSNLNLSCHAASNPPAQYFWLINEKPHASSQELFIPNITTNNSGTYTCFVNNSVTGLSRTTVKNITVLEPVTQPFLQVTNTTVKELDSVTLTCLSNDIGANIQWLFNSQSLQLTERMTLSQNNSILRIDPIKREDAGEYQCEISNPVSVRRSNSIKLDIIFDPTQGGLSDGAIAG

[2] = target: T2, mouse CEACAM1 on transfected CHO cells (mouse) (UniProt P31809); assay: ELISA; cell ELISA (cELISA): mCEACAM1 or mTIM-3 transfected CHO cells seeded on plates; serially diluted mCEACAM-hFc in DMEM with 10% FBS, 30 min at room temperature; detected with HRP goat anti-human IgG; only the binder purified
T2 sequence: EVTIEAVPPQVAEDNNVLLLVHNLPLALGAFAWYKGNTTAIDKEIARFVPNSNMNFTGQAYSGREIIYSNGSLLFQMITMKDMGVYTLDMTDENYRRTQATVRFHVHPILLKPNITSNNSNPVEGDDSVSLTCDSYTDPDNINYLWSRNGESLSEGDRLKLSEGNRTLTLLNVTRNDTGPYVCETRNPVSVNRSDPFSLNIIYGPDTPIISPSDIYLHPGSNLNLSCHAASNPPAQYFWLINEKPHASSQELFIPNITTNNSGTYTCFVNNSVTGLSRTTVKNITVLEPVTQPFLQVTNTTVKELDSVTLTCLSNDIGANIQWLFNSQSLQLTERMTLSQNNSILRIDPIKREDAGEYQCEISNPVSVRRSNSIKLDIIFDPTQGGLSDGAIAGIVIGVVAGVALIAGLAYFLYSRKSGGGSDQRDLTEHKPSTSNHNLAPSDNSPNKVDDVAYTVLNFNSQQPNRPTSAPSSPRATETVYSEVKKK

[3] = target: T2, mouse CEACAM1 on transfected CHO cells (mouse); assay: ELISA; cELISA with CC1 IgG or Fab of CC1: mCEACAM1-CHO cells, serially diluted antibody or isotype control, then mCEACAM1-hFc at 10 ug/ml; detected with HRP goat anti-human IgG; only the binder purified
[4] = target: T2, mouse CEACAM1 on transfected CHO cells (mouse); assay: flow cytometry on cells; soluble mCEACAM1 binding to mCEACAM1 transfected cells in the presence of CC1 antibody (data not shown); only the binder purified
mCEACAM1-His (mouse) [5] = target: T1, mCEACAM1-His (mouse); assay: ELISA; protein ELISA with Fab of CC1 (data not shown); both purified
mCEACAM1-His (mouse) [6] = target: T1, mCEACAM1-His (mouse); assay: ELISA; protein ELISA with CC1 IgG: coated mCEACAM-His, serially diluted CC1 (from 20 ug/ml) or isotype control 30 min, then mCEACAM-hFc at 1 ug/ml 30 min; detected with HRP goat anti-human IgG; both purified

binding (mCEACAM1-His (mouse) [1]): binds | binding [2]: binds
B1: mCEACAM1-hFc (Fc fusion, UniProt P31809 35-428)
chain: T1 sequence
binding [3]: binds | binding [4]: binds | binding (mCEACAM1-His (mouse) [5]): binds | binding (mCEACAM1-His (mouse) [6]): binds
